Data reported in paper PMC12040169 (PLOS Biology, 2025).
This is one part of the list.

system: T1, CTL2-GFP (C. trachomatis L2/434/Bu, GFP-expressing); design: species or system HeLa; Intracellular C. trachomatis growth in HeLa cells, bulk GFP fluorescence relative to DMSO; conditions: bulk GFP, single well; 28.5 h, 10 µM; inhibitor
T1 construct: L2/434/Bu, GFP-expressing

Compound	% of control remaining
Cc1ccc(S(N)(=O)=O)cc1C(=O)Nc1nncs1 [CBK050456]	162.967%
Cc1c(C(C)NCCc2nnc[nH]2)cnn1-c1ccc(C#N)cc1 (stereo not drawn) [CBK304063]	116.88%
Cc1c(NC(=O)Nc2ccc(Cl)cc2)sc(=S)n1C [CBK027495]	72.5464%
CCCS(=O)(=O)N1CCC(C(=O)NCc2ccc(Cl)cc2Cl)CC1 [CBK305559]	113.061%
CC1CCc2c(sc3nc(SCC(=O)NC(c4ccccc4)c4ccccc4)nc(N)c23)C1 (stereo not drawn) [CBK267274]	125.531%
CC1CCc2c(sc(NC(=O)c3ccncc3)c2C(N)=O)C1 (stereo not drawn) [CBK288530]	128.219%
Cc1cc(-c2ccc([N+](=O)[O-])cc2)nc2ccc3ccccc3c12 [CBK263253C]	121.798%
O=C1NC2CCCCC2NC1CC(=O)N1CCN(Cc2ccccc2)CC1 (stereo not drawn) [CBK269484]	139.772%
Cc1[nH]c2ccccc2c1C(=O)CSc1nc2scc(-c3ccco3)c2c(=O)n1-c1ccccc1 [CBK267933]	124.789%
O=S(=O)(c1ccc(-n2cnc(Cl)c2Cl)cc1)N1CCCN(Cc2ccc3cccc(O)c3n2)CC1 [CBK063088]	107.071%
CCCCN1CC(C(=O)OCC)=C(O)C1=O [CBK028774]	120.733%
CC(=O)Nc1cc2ccccc2nc1C1CCN(C(=O)C(C)C)CC1 [CBK285259]	120.285%
c1ccc(Cn2cc(-c3nccnc3OCCn3ccnc3)cn2)cc1 [CBK107102]	127.844%
CC1CC(C)CN(CCCNC(=O)c2cc(-c3cccs3)no2)C1 (stereo not drawn) [CBK281949]	142.877%
Cc1nn(C(C)CC(=O)NCCN2CCC(C)CC2)c(C)c1Cl (stereo not drawn) [CBK281558]	121.575%
CC(C)(CO)CNc1cc(Cl)nc2ccnn12 [CBK037200]	116.832%
COc1ccc(CCNC(=S)NC2CC3CCC2C3)cc1OC (stereo not drawn) [CBK015410]	113.69%
COc1cccc(C(=O)Nc2ccc(O)c(C)c2)c1 [CBK264413]	131.384%
Cc1ccc(-n2c(=O)[nH]c3c(C(=O)Nc4ccccc4)cn(C)c3c2=O)cc1 [CBK287651]	121.566%
CCn1c(=O)n(CC(=O)N(C(C)C)C(C)C)c2cccnc21 [CBK283943]	153.852%

In another format: entries from further up
CCCS(=O)(=O)N1CCC(C(=O)NCc2ccc(Cl)cc2Cl)CC1 [CBK305559]
  % of control remaining: 113.061%
Cc1nn(C(C)CC(=O)NCCN2CCC(C)CC2)c(C)c1Cl (stereo not drawn) [CBK281558]
  % of control remaining: 121.575%

Next part:

Compound	% of control remaining
Cc1c(Cl)cccc1S(=O)(=O)Nc1nc(CSc2ccccn2)ns1 [CBK200054]	103.56%
O=S(=O)(/C=C/c1ccccc1)Nc1cccc2cc[nH]c12 [CBK155788]	91.2451%
CCN(Cc1ccco1)C(=O)NC1CCCc2c1cnn2CCO (stereo not drawn) [CBK305767]	118.289%
CCN1CCCC1Cn1c(=S)[nH]c2ccccc2c1=O (stereo not drawn) [CBK267849]	145.398%
Cc1ccnc(SCC(N)=O)n1 [CBK028874]	143.086%
O=C(c1cccc([N+](=O)[O-])c1)c1ccc2c(c1)C(=O)N(Cc1cccnc1)C2=O [CBK262784]	100%
CC(=O)Nc1nc2[nH]c(C)c(Cc3ccccc3)c(=O)n2n1 [CBK288202]	127.402%
COCCCNC(=O)COc1cc(C)ccc1C [CBK264625]	100%
O=C1CC(N2CCN(c3ccc(S(=O)(=O)N4CCOCC4)cc3)CC2)C(=O)N1Cc1ccccc1 (stereo not drawn) [CBK268713]	107.036%
Cc1cc(-c2cn3ccnc3c(N3CCOCC3)n2)cc(C)c1O [CBK066691]	185.855%
Cc1ccc(SCS(=O)(=O)c2ccc(C)cc2)cc1 [CBK026853]	123.16%
O=C(Nc1nnc(SCc2cc(=O)n3nc[nH]c3n2)s1)c1ccc(F)cc1 [CBK294399]	121.59%
CSc1nnc(-c2ccc(C(C)(C)C)cc2)n1Cc1ccco1 [CBK017071]	99.5376%
COc1ccc2nc(N3CCc4ccccc4C3)sc2c1 [CBK287493]	161.196%
O=C(O)C1CCN(C(=O)CCn2ccc3cc(Br)ccc32)CC1 [CBK286617]	124.808%
CC(=O)N[C@H]1CO[C@H]2[C@@H]1OC[C@@H]2n1nnnc1Oc1ccc(-n2ccnc2)cc1 [CBK289487]	113.004%
COC(=O)C1(Cc2ccccc2)CN(C(=O)OC(C)(C)C)CCC1=O (stereo not drawn) [CBK003486]	114.617%
Cc1cccc2c1CC(=O)NC21CCN(Cc2ccccc2)CC1 [CBK039819]	158.592%
CCN1CCN(C(=O)CN(Cc2ccc(F)cc2)S(=O)(=O)c2ccccc2)CC1 [CBK266612]	158.85%
